According to publication PMC5103873:
Results are given in words; binding and its absence hold for the method and conditions named. In cells and extracts the contact can be indirect. Some entries that bind do so weakly or less than the wild type.

Protein sequences, listed by entry. Tags and fused reporters are not part of them. Lines headed by an entry give the natural chain unless they say otherwise; changes in a name come on top. Chains listed by the source or under a name are the forms on record and can include a tag or linker. Residues count along the entry.
parathyroid hormone receptor 1 (PTH1R) wild type, N-terminally HA-tagged, C-terminally eYFP-labelled (Q03431, residues 27-593): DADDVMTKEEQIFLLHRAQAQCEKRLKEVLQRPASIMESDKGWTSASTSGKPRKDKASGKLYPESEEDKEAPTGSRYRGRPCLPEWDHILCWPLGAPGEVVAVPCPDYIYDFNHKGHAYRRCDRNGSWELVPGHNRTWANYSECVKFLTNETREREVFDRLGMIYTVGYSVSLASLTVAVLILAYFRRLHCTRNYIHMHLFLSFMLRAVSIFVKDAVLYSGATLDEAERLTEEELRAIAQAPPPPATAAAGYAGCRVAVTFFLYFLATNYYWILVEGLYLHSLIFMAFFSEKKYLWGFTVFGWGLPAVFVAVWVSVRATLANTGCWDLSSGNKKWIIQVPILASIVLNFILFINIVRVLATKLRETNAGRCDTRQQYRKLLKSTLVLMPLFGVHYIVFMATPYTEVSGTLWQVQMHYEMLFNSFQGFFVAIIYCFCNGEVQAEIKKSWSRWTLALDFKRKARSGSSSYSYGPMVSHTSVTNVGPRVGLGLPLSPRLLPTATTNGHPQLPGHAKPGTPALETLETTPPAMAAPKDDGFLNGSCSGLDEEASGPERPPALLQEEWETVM
PTH1R PD2 mutant (all serine/threonine residues of cluster 2, S501–T506, to alanine), HA- and eYFP-tagged (Q03431, form named): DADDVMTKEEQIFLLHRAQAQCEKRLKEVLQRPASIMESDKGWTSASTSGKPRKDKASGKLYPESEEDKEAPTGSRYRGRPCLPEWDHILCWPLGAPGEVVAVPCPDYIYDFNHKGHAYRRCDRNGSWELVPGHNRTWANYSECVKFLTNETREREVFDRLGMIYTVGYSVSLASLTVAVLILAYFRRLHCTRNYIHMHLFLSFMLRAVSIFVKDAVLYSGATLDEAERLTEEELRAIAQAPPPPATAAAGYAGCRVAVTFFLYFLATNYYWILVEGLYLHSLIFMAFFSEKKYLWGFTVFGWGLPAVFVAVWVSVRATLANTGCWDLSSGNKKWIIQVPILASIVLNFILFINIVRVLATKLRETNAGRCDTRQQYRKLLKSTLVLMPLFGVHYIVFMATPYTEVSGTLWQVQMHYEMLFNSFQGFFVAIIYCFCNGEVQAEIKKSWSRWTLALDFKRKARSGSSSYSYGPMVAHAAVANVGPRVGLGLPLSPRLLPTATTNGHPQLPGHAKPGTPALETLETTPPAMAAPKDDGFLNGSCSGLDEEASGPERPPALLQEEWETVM
PTH1R PD1 mutant (all serine/threonine residues of cluster 1, S489–S495, to alanine), HA- and eYFP-tagged (Q03431, form named): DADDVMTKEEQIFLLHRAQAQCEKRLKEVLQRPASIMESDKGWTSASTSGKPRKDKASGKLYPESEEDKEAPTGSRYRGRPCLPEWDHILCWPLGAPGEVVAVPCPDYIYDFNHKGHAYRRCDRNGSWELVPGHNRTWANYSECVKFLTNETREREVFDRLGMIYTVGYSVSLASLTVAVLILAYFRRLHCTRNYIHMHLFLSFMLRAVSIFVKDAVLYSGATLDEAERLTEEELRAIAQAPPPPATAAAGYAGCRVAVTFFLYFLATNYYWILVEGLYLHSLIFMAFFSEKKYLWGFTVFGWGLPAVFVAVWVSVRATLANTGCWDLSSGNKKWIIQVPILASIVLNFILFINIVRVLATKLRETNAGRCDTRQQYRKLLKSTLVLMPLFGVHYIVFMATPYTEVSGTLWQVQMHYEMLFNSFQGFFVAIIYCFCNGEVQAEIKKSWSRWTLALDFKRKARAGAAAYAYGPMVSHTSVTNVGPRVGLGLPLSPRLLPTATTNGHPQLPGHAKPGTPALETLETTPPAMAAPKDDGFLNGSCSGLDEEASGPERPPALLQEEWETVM
PTH1R PD3 mutant (mutations of clusters 1 and 2 combined), HA- and eYFP-tagged (Q03431, form named): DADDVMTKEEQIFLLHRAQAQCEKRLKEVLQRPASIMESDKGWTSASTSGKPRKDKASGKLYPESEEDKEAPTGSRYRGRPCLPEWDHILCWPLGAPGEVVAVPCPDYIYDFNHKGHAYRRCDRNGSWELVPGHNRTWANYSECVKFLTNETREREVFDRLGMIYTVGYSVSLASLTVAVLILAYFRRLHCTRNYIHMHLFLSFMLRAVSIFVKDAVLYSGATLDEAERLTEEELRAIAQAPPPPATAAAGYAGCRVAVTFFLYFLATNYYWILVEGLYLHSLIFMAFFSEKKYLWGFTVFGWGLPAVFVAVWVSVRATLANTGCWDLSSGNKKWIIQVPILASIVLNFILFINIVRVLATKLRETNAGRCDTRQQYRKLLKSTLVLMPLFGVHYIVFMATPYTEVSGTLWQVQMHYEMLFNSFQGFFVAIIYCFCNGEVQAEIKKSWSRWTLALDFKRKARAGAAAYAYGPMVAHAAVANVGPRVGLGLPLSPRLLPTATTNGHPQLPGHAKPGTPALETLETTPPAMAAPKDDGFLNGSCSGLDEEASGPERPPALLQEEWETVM

Legend:
Assay in all cases: FRET or BRET; BRET donor/acceptor titration in HEK293 cells; fixed amount of arrestin3–Rluc, increasing amounts of receptor–eYFP; net BRET induced by 1 µM PTH(1–34); one-site binding fit
[1] = molecular target: parathyroid hormone receptor 1 (PTH1R) wild type, N-terminally HA-tagged, C-terminally eYFP-labelled (human) (UniProt Q03431)
[2] = molecular target: PTH1R PD2 mutant (all serine/threonine residues of cluster 2, S501–T506, to alanine), HA- and eYFP-tagged (human) (UniProt Q03431)
[3] = molecular target: PTH1R PD1 mutant (all serine/threonine residues of cluster 1, S489–S495, to alanine), HA- and eYFP-tagged (human) (UniProt Q03431)
[4] = molecular target: PTH1R PD3 mutant (mutations of clusters 1 and 2 combined), HA- and eYFP-tagged (human) (UniProt Q03431)

Measured: binding

arrestin3–Renilla luciferase (Rluc) (from UniProt P32121 1-409)
binds: all assays above
